In patent publication US20100323990A1, “SHIP 1 MODULATOR PRODRUGS” (THE UNIVERSITY OF BRITISH COLUMBIA, priority 2006, published 2010):
At least one compound was matched to its structure with a doubt left.

How the values were obtained:
[1] = system: SHIP+/+ and SHIP−/− bone marrow derived mast cells; test: IgE + antigen-induced calcium entry in SHIP+/+ vs SHIP−/− mast cells; type: cell-based, mice
LNCaP cells = test: PKB activation in LNCaP cells, which do not express SHIP; type: cell-based, human; settings: AQX-016A at doses up to 60 μM
Procedure: The ability of AQX-016A to inhibit activation of PIP3-dependent downstream signalling proteins in SHIP^+/+ vs SHIP^−/− was assessed. LPS stimulation of macrophages results in PKB phosphorylation. […] Similar protein loading was confirmed by reblotting with either antibodies to PKB or Grb2. […] Thus, AQX-016A inhibits PIP3-regulated intracellular signal transduction events in SHIP expressing hematopoietic cells, but not in SHIP-deficient hematopoietic or non-hematopoietic cells.

SHIP enzyme = test: In vitro SHIP enzyme assay (Assay 1), phosphate release by Malachite Green; type: biochemical; settings: 10 ng enzyme/well, 100 μM inositol-1,3,4,5-tetrakisphosphate; note: key: a ‘+’ indicates a positive result for desired activity; a ‘−’ indicates a negative result for desired activity
Procedure: (§1) Assay 1) In vitro testing in a SHIP enzyme assay. Test compounds were dissolved in a suitable solvent (e.g. EtOH, DMSO and others) and diluted into aqueous buffer (20 mM Tris HCl, pH 7.5 and 10 mM MgCl2). SHIP enzyme assays were performed in 96-well microtitre plates with 10 ng of enzyme/well in a total volume of 25 μL of 20 mM Tris HCl, pH 7.5 and 10 mM MgCl2. SHIP enzyme was incubated with test extracts (provided in solvent) or vehicle for 15 min at 23° C. before the addition of 100 μM inositol-1,3,4,5-tetrakisphosphate (Echelon Biosciences Inc, Salt Lake City, Utah). After 20 min at 37° C. and the amount of inorganic phosphate released assessed by the addition of Malachite Green reagent and absorbance measurement at 650 nm. Assay 2) Macrophage TNF-α production. […] Calcium influx was monitored by spectrofluorometry as described previously. […] Total cell lysates were then prepared and analyzed for phospho-PKB, phospho-p38^MAPK, phospho-MAPK, Grb-2 (Cell Signalling, Mississauga, Ont) and SHIP^6 by immunoblot analysis. […] The ability of SHIP activators to reduce tumor cell survival was assessed in MM cell lines treated with the test compound. The lines OPM1, OPM2, MM.1S and RPMI 8226 were plated at a density of 1×10^5 cells/mL in 200 μL of medium with various concentrations of the test compound, and viable cell numbers were determined on day 3 and day 5 by trypan blue exclusion. […]

[2] = system: CD1 mice sensitized to the hapten DNP; test: Mouse acute cutaneous anaphylaxis model (Assay 5); type: in vivo; settings: topically applied, vs vehicle control-treated ear
plasma TNFα = test: Mouse endotoxemia model (Assay 6), plasma TNFα by ELISA; type: in vivo, mice; settings: oral administration 30 min prior to LPS
Procedure: as §1

[3] = system: SHIP+/+ and SHIP−/− macrophages; test: LPS-stimulated PKB phosphorylation in macrophages (immunoblot); type: cell-based, mice; settings: SHIP+/+ vs SHIP−/− macrophages
[4] = system: SHIP+/+ and SHIP−/− mast cells; test: Phosphorylation of PKB, p38MAPK and ERK in mast cells (immunoblot); type: cell-based, mice; settings: SHIP+/+ vs SHIP−/− mast cells

Structure (SMILES)	IgE+ antigen-induced calcium entry [1]	PKB phosphorylation in LNCaP cells (LNCaP cells)	Assay 1: SHIP enzyme assay, desired activity (SHIP enzyme)	allergen (DNFB)-induced inflammation of the ear [2]	LPS-induced plasma/serum TNFα levels (plasma TNFα)	LPS-stimulated PKB phosphorylation [3]	phosphorylation of PKB, p38MAPK and ERK [4]
O=c1cc(N2CCOCC2)oc2c(-c3ccccc3)cccc12 [LY294002, reference compound]	to the same extent	efficiently suppressed PKB phosphorylation					
Cc1cc(O)c(O)c2c1[C@]1(C)CCC3C(C)(C)CCC[C@]3(C)[C@H]1C2 (some centres unmarked) [AQX-016A]	selectively inhibited		+	able to inhibit DNFB-induced inflammation	reduced the level of serum TNFα and did so to the same extent as dexamethasone	preferentially inhibited	inhibited the phosphorylation of PKB
